According to publication PMC7730363:
No constants are given. Whether binding was seen depends on the method and setting.

Target: TDP-43(256–264) peptide, ALR
Assay: native MS; ESI-MS (Q-ToF, soft ionisation settings); 10 µM peptide in 100 mM ammonium acetate, pH 7.5, without zinc or with 50 µM ZnCl2; both purified

B1: TDP-43(256–264) peptide, ALR (peptide)
peptide: HISNAEPKH
B1 was tested, and the binding was “no binding (tested: 10 µM)”.
